Test results reported in PMC7067850, “Identification of highly potent and selective inhibitor, TIPTP, of the p22phox-Rubicon axis as a therapeutic agent for rheumatoid arthritis” (Scientific Reports, 2020).
Results are given in words; binding and its absence hold for the method and conditions named. Binding seen in cells or lysates may run through a third protein. Some entries that bind do so weakly or less than the wild type.

T1: p22phox (human, endogenous) (human (endogenous in monocytes and in synoviocytes of RA patients)) (UniProt P13498)
T1 sequence: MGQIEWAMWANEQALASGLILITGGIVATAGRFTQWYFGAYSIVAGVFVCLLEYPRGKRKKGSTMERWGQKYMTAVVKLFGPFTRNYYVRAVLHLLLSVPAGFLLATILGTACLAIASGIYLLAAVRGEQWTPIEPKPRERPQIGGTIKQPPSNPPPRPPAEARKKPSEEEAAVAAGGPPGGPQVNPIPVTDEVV

T2: Run/cysteine-rich-domain-containing Beclin1-interacting autophagy protein (Rubicon) (mouse, endogenous) (mouse (endogenous in synoviocytes of CIA mice, BMDMs)) (UniProt Q80U62)
T2 sequence: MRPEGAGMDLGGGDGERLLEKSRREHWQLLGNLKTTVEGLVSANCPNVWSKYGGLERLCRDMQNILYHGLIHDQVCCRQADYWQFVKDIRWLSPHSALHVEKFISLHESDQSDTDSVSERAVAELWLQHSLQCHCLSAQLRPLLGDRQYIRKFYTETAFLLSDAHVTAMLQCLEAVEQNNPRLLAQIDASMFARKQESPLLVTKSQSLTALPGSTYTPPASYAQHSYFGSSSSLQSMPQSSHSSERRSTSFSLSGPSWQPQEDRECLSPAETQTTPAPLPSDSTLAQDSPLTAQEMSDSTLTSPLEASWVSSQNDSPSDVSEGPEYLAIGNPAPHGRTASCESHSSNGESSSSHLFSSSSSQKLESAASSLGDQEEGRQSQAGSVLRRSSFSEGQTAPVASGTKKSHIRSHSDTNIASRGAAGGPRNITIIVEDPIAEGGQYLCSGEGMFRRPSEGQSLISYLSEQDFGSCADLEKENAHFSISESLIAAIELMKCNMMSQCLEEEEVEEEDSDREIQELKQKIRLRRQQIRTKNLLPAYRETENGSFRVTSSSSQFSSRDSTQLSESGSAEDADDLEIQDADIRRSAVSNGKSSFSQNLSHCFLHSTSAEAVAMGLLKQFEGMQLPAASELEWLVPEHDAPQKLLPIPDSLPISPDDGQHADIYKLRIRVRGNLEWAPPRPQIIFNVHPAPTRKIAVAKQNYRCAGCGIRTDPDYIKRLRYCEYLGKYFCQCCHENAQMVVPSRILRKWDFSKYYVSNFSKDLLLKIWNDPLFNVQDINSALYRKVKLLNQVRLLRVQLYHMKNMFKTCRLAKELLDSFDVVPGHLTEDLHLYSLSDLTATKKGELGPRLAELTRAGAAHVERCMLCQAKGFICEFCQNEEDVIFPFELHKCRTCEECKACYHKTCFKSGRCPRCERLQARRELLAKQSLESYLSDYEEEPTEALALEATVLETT

B1: Rubicon (human, endogenous) (protein, UniProt Q92622 1-972)
chain: MRPEGAGMELGGGEERLPEESRREHWQLLGNLKTTVEGLVSTNSPNVWSKYGGLERLCRDMQSILYHGLIRDQACRRQTDYWQFVKDIRWLSPHSALHVEKFISVHENDQSSADGASERAVAELWLQHSLQYHCLSAQLRPLLGDRQYIRKFYTDAAFLLSDAHVTAMLQCLEAVEQNNPRLLAQIDASMFARKHESPLLVTKSQSLTALPSSTYTPPNSYAQHSYFGSFSSLHQSVPNNGSERRSTSFPLSGPPRKPQESRGHVSPAEDQTIQAPPVSVSALARDSPLTPNEMSSSTLTSPIEASWVSSQNDSPGDASEGPEYLAIGNLDPRGRTASCQSHSSNAESSSSNLFSSSSSQKPDSAASSLGDQEGGGESQLSSVLRRSSFSEGQTLTVTSGAKKSHIRSHSDTSIASRGAPESCNDKAKLRGPLPYSGQSSEVSTPSSLYMEYEGGRYLCSGEGMFRRPSEGQSLISYLSEQDFGSCADLEKENAHFSISESLIAAIELMKCNMMSQCLEEEEVEEEDSDREIQELKQKIRLRRQQIRTKNLLPMYQEAEHGSFRVTSSSSQFSSRDSAQLSDSGSADEVDEFEIQDADIRRNTASSSKSFVSSQSFSHCFLHSTSAEAVAMGLLKQFEGMQLPAASELEWLVPEHDAPQKLLPIPDSLPISPDDGQHADIYKLRIRVRGNLEWAPPRPQIIFNVHPAPTRKIAVAKQNYRCAGCGIRTDPDYIKRLRYCEYLGKYFCQCCHENAQMAIPSRVLRKWDFSKYYVSNFSKDLLIKIWNDPLFNVQDINSALYRKVKLLNQVRLLRVQLCHMKNMFKTCRLAKELLDSFDTVPGHLTEDLHLYSLNDLTATRKGELGPRLAELTRAGATHVERCMLCQAKGFICEFCQNEDDIIFPFELHKCRTCEECKACYHKACFKSGSCPRCERLQARREALARQSLESYLSDYEEEPAEALALEAAVLEAT
B2: p22phox subunit of NADPH oxidase (mouse, endogenous) (protein, UniProt Q61462 1-192)
chain: MGQIEWAMWANEQALASGLILITGGIVATAGRFTQWYFGAYSIAAGVLICLLEYPRGKRKKGSTMERCGQKYLTSVVKLFGPLTRNYYVRAALHFLLSVPAGFLLATILGTVCLAIASVIYLLAAIRGEQWTPIEPKPKERPQVGGTIKQPPTNPPPRPPAEVRKKPSEGEEEAASAGGPQVNPMPVTDEVV

What was measured:
[1] = molecular target: T1, p22phox (human, endogenous) (human (endogenous in monocytes and in synoviocytes of RA patients)); experiment: co-IP; endogenous proteins, LPS-primed human monocytes treated with TIPTP (0.01, 0.1, 1 uM) for 30 min, then activated with ATP for 30 min; IP with anti-p22phox or anti-Rubicon, immunoblot
[2] = molecular target: T1, p22phox (human, endogenous) (human (endogenous in monocytes and in synoviocytes of RA patients)); experiment: co-IP; endogenous proteins, LPS-primed synoviocytes from patients with RA (or OA) treated with TIPTP, then activated with ATP; IP with anti-p22phox or anti-Rubicon, immunoblot (Fig. 6c, Supplemental Fig. 7)
[3] = molecular target: T2, Run/cysteine-rich-domain-containing Beclin1-interacting autophagy protein (Rubicon) (mouse, endogenous) (mouse (endogenous in synoviocytes of CIA mice, BMDMs)); experiment: co-IP; endogenous proteins, mouse BMDMs primed with LPS (100 ng/ml), treated with compound 1 or TIPTP for 1 h, activated with ATP (1 mM) for 30 min; IP with anti-Rubicon, immunoblot
[4] = molecular target: T2, Run/cysteine-rich-domain-containing Beclin1-interacting autophagy protein (Rubicon) (mouse, endogenous) (mouse (endogenous in synoviocytes of CIA mice, BMDMs)); experiment: co-IP; endogenous proteins, synovial fluid containing synoviocytes from CIA mice at the indicated times (also from CIA mice treated with TIPTP or vehicle); NP-40 buffer lysates, IP with anti-p22phox or anti-Rubicon, protein A/G agarose, immunoblot

| Binder | binding [1] | binding [2] | binding [3] | binding [4] |
| --- | --- | --- | --- | --- |
| B1 | binds | binds | – | – |
| B2 | – | – | binds | binds |
